The values are deposited in ChEMBL (CHEMBL3988442, “University of Dundee, Small-Polar-MMV Screening Library” (2021)).

Values are the deposited “Percent Effect”, in %. The controls that fix the scale are not given in the record; negative values are as filed. Compounds were drawn at random from those tested, without regard to their results. Two or more numbers in one place are separate tests of the same structure; such repeats can differ widely.

Mtb glucose medium: 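Phenotypic screen: M. tuberculosis growth, glucose 7H9 medium, 3 days; the read-out is not stated. Compounds at 50 µM. Higher reads as more growth inhibition (inferred: compounds with an IC50 in retests scored well above the rest). Size under these conditions: about 69,000 compounds, about 760 of them at 50% or above in at least one test.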
Mtb cholesterol medium: 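Whole-cell growth test on Mycobacterium tuberculosis, read after 4 days in a medium based on cholesterol and the lipid DPPC; the read-out is not stated. Concentration: 50 µM. Higher reads as more growth inhibition (inferred: compounds with an IC50 in retests scored well above the rest). Of about 69,000 compounds tested this way, about 370 (0.54%) reached 50% or more in at least one test.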

SMILES,Mtb glucose medium,Mtb cholesterol medium
Cc1ccc(C(=O)NCC(O)CN2CCCC2=O)c(C)c1 (stereo not drawn),12.89 and -7.572,18.5
[H][C@@]12C[C@@H](c3nc(C)no3)CN(S(=O)(=O)N(C)C)[C@]1([H])CCO2,3.394,10.4
CNC(=O)[C@@H](c1ccccc1OC)N1CCC[C@H]1C(=O)NCCN(C)C.Cl.Cl,-4.923 and 20.86,14.71
CC(C)N(Cc1c[nH]nc1-c1ccc2c(c1)OCO2)Cc1nccn1C,15.22,5.25
O=C(O)C(F)(F)F.O=C(O)C(F)(F)F.[H][C@]12OCCC[C@]1([H])N(C(=O)c1cccc(C)n1)C[C@H]2OCc1cccnc1,-7.997,-3.499
CC(CC(=O)c1ccco1)NC(=O)c1ccccn1 (stereo not drawn),4.803,14.65
CN1CCC(N2CCC[C@H]2c2nc(-c3cncnc3N)no2)CC1,-22.91 and -5.531,-40.22
CC(C)(C)NC(=O)c1ccccc1NC(=O)c1ccncc1,16.87 and 5.714,-5.212
O=C1CC(c2ccco2)c2sc(C(=O)O)c(-c3ccccc3)c2N1 (stereo not drawn),2.985,11.52
Cc1noc(C)c1C(=O)N1CCCN(Cc2cscn2)CC1,-12.47,-6.293
O=C(O)C(F)(F)F.[H][C@@]12CCN(c3ccc(C)nn3)[C@]1([H])CC[C@H](C(=O)N1CCCO1)O2,-9.117,-9.265
COc1cc(F)c(S(=O)(=O)Nc2cnc(O)cc2C)cc1OC,-22.52,-9.565
O=C(c1coc(-c2ccccc2)n1)N1CCCCC1,42.07 and 30.33,35.22
O=C(O)C(F)(F)F.[H][C@@]12CCCO[C@]1([H])[C@H](NC(=O)c1nccn1C)CN2Cc1ccoc1,-37.03,-14.35
Cc1nn(C)c(C)c1CCC(=O)Nc1cn(C)c(=O)n(C)c1=O,-1.919,-5.009
Cc1ccc(CNC(=O)NCC(=O)N2CCCC2)c(N2CCCC2)c1,-5.488 and 1.676,-7.282
O=C(c1ccc(COc2ccccc2Cl)o1)N1N=CCC1(O)C(F)(F)F (stereo not drawn),9.87 and -1.088,11.36
CCn1ncc(S(=O)(=O)NC2(CN3CCOCC3)CCCCC2)c1C,2.711,-6.586
Cc1cncc(NCC(O)c2ccco2)n1 (stereo not drawn),-3.903,0.6436
COC(C)(C)CC(C)NC(=O)Nc1ccccn1 (stereo not drawn),-12.63,1.651
Cn1cc(C2CCCN2C(=O)CCn2ccc3ccccc32)cn1 (stereo not drawn),27.69 and 7.52,11.25
CCOC(=O)c1nc(CN2CCC(NC(=O)C(C)C)CC2)cs1,-11.22,-5.587
COc1ccc(N(C(=O)c2ccc(C)nc2)C(C)C)cc1F,-13.47,-25.34
Cn1cccc1C(=O)NC1CCN(c2ccc(OC(F)(F)F)cc2)CC1,29.6,-9.947
COCCN1CCCC2(CCN(c3nc(C)nc4c3CCC4)C2)C1=O (stereo not drawn),20.16,10.9
Cc1ccc(CNC(C)c2ccc(OCC(=O)NC3CC3)cc2)o1 (stereo not drawn),-9.472,-15.07
CCCN(CCS(C)(=O)=O)C1CCc2ccccc2C1 (stereo not drawn),29.43,2.796
COCCCN1Cc2cccc(NC(=O)c3ccccc3Cl)c2C1,25.33,3.451 and 12.39
CCn1ncc(C(=O)N2CCN(CC3CCCO3)CC2)c1C (stereo not drawn),2.708,-9.9
Cc1ccc(C)c(C(=O)N2CCN(C(=O)Cc3ccccn3)CC2)c1,7.423,-19.51
NS(=O)(=O)c1cccnc1Nc1cccc(Cl)c1Cl,31.83 and 9.822,12.32
Cc1nc(NCc2ccc(F)cc2)cc(C2CCCN2)n1.Cl (stereo not drawn),0.4508,1.889 and -9.753
[H][C@]12CC[C@@]3(N=C(C)NC3=O)[C@@]1([H])CN(CC(C)C)C2,-6.87 and -2.545,12.16
CNC(=O)c1cccc(C2CNCCN2C(=O)c2cccc(F)c2)c1.Cl (stereo not drawn),3.341,-6.02
Cc1csc(CNC(=O)N(C)Cc2ccc([S+](C)[O-])cc2)n1 (stereo not drawn),-4.635 and -3.034,18.23
O=C(c1cccnc1O)N1CCOC(Cc2cccc(C(F)(F)F)c2)C1 (stereo not drawn),0.4998 and -11.72,-13.65
COc1cccc2[nH]cc(CCNC(=O)N3CCOCC3C3CC3)c12 (stereo not drawn),3.994 and -3.251,-5.188
[H][C@]12CC[C@]([H])(CN(C(=O)c3cccnc3)C1)N(Cc1ncc[nH]1)C2,9.027 and -3.142,-10.89
CC(C)OCCOCc1cccc(NC(=O)NCc2cnn(C)c2)c1,7.71 and -7.276,-2.996
O=C(O)C(F)(F)F.O=C(O)C(F)(F)F.c1cncc(COC[C@@H]2CCC[C@]23CNCCO3)c1,15.1,2.686
Cc1nn(-c2ncccn2)c2c1C(c1cnn(C)c1C)SCC(=O)N2 (stereo not drawn),17.96,16.4
CC(C)(C)C(=O)N1CCN(CCOc2cccc(C#N)c2)CC1,-12.93,-12.6
COc1cc(CN2CC(=O)N(c3ccc(C)cc3)CC2C)cc(OC)c1 (stereo not drawn),16.78,-10.37
CC(C)OCc1nn(C)c2c1CCN(Cc1ccco1)C2.O=C(O)C(F)(F)F,-2.178 and -6.994,13.32 and -4.231
[H][C@@]12CN(C(=O)C3CCOC3)C[C@]1([H])C(=O)N(c1ccccc1)C2 (stereo partly drawn),-2.618 and -15.33,-3.136 and -4.131
CN(C)C(=O)CCCn1ccc(NCc2ccc(C#N)cc2)n1,-24.15,-12.82
CC(C)(C)n1ncc2c1NC(=O)CSC2c1ccc2c(c1)OCO2 (stereo not drawn),-0.6614,-4.436

Some entries from above, unchanged:

- Cc1nc(NCc2ccc(F)cc2)cc(C2CCCN2)n1.Cl (stereo not drawn) | Mtb glucose medium: 0.4508%; Mtb cholesterol medium: 1.889% and -9.753%
- COc1ccc(N(C(=O)c2ccc(C)nc2)C(C)C)cc1F | Mtb glucose medium: -13.47%; Mtb cholesterol medium: -25.34%
- NS(=O)(=O)c1cccnc1Nc1cccc(Cl)c1Cl | Mtb glucose medium: 31.83% and 9.822%; Mtb cholesterol medium: 12.32%
- CC(CC(=O)c1ccco1)NC(=O)c1ccccn1 (stereo not drawn) | Mtb glucose medium: 4.803%; Mtb cholesterol medium: 14.65%